Results are given in words; binding and its absence hold for the method and conditions named. Binding seen in cells or lysates may run through a third protein. Some binding calls cover weakened binding; strength is not graded here. Where a sequence is shown, tags or fusion partners need not be part of it.
Experiments:
[1] = target: T1, FLAG-tagged IFNLR1 variant 1 (full-length canonical interferon lambda receptor 1) (UniProt Q8IU57); assay: proximity ligation; IFNL3 (100 ng/ml, 15 min) added to dox-uninduced HEK293T cells expressing the FLAG-tagged variant; ligand binding read from the IFNL3-dependent FLAG/IL10RB PLA signal, IFNL3 itself not detected; only the binder purified
T1 sequence: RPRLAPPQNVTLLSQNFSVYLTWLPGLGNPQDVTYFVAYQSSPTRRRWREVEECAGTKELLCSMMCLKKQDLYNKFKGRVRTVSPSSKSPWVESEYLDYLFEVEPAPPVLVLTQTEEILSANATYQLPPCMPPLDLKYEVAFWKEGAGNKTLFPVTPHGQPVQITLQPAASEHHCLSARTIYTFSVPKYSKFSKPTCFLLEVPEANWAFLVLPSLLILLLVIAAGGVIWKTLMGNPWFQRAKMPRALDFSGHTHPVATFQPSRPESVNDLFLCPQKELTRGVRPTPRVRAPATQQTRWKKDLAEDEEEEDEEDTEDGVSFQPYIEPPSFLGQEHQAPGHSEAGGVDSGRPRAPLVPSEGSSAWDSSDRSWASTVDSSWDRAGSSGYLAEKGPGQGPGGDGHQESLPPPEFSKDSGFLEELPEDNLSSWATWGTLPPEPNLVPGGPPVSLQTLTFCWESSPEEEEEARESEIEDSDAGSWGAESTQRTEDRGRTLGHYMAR

[2] = target: T2, FLAG-tagged IFNLR1 variant 2 (noncanonical variant missing part of the Box1 and Box2 JAK1-interacting motifs) (UniProt Q8IU57); assay: as above
T2 sequence: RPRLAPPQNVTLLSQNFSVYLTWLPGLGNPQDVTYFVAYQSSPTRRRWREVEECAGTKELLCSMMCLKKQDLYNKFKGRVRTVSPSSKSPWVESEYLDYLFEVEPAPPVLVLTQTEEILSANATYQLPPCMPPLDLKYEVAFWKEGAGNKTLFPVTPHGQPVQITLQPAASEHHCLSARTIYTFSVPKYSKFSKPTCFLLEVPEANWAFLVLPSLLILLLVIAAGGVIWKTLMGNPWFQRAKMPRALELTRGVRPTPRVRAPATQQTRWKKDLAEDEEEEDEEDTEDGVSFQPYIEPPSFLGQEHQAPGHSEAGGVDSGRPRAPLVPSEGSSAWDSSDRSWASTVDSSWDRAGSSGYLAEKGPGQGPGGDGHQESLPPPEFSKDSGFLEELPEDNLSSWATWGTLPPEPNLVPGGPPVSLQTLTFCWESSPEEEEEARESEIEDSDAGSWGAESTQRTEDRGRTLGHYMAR

binding [1]: binds
binding [2]: binds
B1: IFNL3 (lambda interferon 3) (ligand, UniProt Q8IZI9 22-196)
chain: VPVARLRGALPDARGCHIAQFKSLSPQELQAFKRAKDALEESLLLKDCKCRSRLFPRTWDLRQLQVRERPVALEAELALTLKVLEATADTDPALGDVLDQPLHTLHHILSQLRACIQPQPTAGPRTRGRLHHWLHRLQEAPKKESPGCLEASVTFNLFRLLTRDLNCVASGDLCV

— paper doi:10.1101/2025.10.03.677101
